Experimental data reported in PMC9515091.
Results are given in words; binding and its absence hold for the method and conditions named. Some binding calls cover weakened binding; strength is not graded here.

Target: T1, AccD (acetyl-CoA carboxylase subunit D) (UniProt P0A9Q5)
T1 sequence: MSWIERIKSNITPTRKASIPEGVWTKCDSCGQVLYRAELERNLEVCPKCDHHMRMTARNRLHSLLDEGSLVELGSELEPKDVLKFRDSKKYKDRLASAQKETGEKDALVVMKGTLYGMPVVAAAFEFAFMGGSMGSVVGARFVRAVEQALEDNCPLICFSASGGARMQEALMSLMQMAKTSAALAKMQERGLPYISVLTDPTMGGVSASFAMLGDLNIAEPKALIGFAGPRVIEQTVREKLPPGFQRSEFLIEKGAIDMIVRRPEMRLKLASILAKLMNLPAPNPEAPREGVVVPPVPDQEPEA
Assay: co-purification (Ni affinity, then anion exchange); lysate of E. coli co-expressing C-terminally 6His-tagged AccD and AccA on a HisTrap HP column (20 mM Tris-HCl pH 8.0, 500 mM NaCl, 10% glycerol, imidazole gradient), then HiTrap Capto Q

binding: binds
B1: AccA (acetyl-CoA carboxylase subunit A) (enzyme, UniProt P0ABD5 1-319)
chain: MSLNFLDFEQPIAELEAKIDSLTAVSRQDEKLDINIDEEVHRLREKSVELTRKIFADLGAWQIAQLARHPQRPYTLDYVRLAFDEFDELAGDRAYADDKAIVGGIARLDGRPVMIIGHQKGRETKEKIRRNFGMPAPEGYRKALRLMQMAERFKMPIITFIDTPGAYPGVGAEERGQSEAIARNLREMSRLGVPVVCTVIGEGGSGGALAIGVGDKVNMLQYSTYSVISPEGCASILWKSADKAPLAAEAMGIIAPRLKELKLIDSIIPEPLGGAHRNPEAMAASLKAQLLADLADLDVLSTEDLKNRRYQRLMSYGYA
